In the test the target is T1, GST-fusion protein of the inhibitor of β-catenin and TCF-4 (ICAT) (UniProt Q9NSA3).
T1 sequence: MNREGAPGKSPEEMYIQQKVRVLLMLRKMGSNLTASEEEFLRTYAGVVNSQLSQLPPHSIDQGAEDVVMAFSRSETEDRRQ
The test is described as follows: pull-down; µGST pull-down within a suspension bead array panel; GST-ICAT as bait protein; small intestine epithelial cell extracts of four mouse genotypes; signal in relative fluorescence units; only the target purified.

The chains behind the UniProt entries cited, without tags or fusion partners.
UniProt Q02248: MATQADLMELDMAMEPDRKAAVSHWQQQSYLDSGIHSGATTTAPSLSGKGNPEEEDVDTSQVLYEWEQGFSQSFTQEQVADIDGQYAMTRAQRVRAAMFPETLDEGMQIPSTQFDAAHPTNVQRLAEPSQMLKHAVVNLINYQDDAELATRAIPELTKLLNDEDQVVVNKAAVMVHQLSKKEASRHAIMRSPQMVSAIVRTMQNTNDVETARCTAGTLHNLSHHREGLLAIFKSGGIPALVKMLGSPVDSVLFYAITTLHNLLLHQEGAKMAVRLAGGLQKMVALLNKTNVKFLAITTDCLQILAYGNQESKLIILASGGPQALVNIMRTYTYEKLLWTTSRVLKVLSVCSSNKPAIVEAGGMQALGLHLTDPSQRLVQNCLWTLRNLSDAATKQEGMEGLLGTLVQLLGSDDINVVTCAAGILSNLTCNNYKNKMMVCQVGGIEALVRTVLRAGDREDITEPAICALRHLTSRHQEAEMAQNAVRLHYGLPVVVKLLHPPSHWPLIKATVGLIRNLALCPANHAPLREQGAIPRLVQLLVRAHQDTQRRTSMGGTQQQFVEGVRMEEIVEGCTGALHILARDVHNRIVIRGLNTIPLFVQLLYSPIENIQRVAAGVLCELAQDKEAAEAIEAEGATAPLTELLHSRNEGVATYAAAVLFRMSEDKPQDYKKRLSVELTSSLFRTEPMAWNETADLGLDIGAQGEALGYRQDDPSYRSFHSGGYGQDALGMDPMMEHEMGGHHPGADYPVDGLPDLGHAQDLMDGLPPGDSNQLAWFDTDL

No constants are given. Whether binding was seen depends on the method and setting. In cells and extracts the contact can be indirect. Some entries that bind do so weakly or less than the wild type. Sequences can lack the tags named with a protein.

As for β-catenin (from UniProt Q02248 1-781), the binding result is reported as “binds”.

Values taken from publication PMC3731217.
